Reference: US20220280526A1, “AGENT FOR THE TREATMENT OF PSORIASIS” (EBERHARD KARLS UNIVERSITAET TUEBINGEN MEDIZINISCHE FAKULTAET, priority 2019, published 2022)
Results are given in words; binding and its absence hold for the method and conditions named. In cells and extracts the contact can be indirect. Some results given as binding are weak or reduced against the parent protein; the word gives no strength.

The chains behind the UniProt entries cited, without tags or fusion partners.
UniProt Q15910: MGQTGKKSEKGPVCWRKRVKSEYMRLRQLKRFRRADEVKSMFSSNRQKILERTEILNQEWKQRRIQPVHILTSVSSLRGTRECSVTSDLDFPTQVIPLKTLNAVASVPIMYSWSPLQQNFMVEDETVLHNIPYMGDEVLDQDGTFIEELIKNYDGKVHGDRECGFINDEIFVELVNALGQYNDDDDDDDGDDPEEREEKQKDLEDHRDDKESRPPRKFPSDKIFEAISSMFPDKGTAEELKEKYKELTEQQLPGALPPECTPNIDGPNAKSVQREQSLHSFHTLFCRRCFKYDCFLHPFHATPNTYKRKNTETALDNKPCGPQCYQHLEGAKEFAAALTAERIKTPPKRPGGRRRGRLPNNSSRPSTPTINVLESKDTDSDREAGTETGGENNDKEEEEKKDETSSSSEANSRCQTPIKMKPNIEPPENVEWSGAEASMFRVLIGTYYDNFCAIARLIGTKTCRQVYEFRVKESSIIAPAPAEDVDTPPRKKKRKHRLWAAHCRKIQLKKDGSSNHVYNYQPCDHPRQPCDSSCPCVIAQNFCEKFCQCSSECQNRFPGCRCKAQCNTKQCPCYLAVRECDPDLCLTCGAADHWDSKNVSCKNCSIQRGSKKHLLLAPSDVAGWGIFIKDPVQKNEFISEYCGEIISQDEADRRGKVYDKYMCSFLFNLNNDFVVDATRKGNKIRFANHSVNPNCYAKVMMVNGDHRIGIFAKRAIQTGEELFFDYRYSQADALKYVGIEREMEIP
UniProt Q00534: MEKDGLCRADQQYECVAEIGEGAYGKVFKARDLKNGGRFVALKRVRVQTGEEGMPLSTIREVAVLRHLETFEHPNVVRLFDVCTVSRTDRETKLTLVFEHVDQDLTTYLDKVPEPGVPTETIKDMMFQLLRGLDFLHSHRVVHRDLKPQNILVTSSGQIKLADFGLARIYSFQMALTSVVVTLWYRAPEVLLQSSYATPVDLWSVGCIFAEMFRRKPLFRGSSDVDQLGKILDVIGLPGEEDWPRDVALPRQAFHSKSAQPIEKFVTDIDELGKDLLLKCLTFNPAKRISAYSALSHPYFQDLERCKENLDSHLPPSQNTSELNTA

Legend:
[1] = molecular target: EZH2 (human) (UniProt Q15910); assay: co-immunoprecipitation from HEK293T cells, FIG. 5c legend
[2] = molecular target: EZH2 (human) (UniProt Q15910); assay: co-immunoprecipitation (pulldown with a CDK6-specific antibody) from HEK293T cells overexpressing EZH2 and CDK6

Question: With “CDK6 (from UniProt Q00534 1-326) (enzyme)” as the substance, how does the binding [1] read?
Answer: binds

Question: And the binding [2]?
Answer: binds
